Laboratory results reported in PMC5348811.

Amino acid sequences for entries named in this document (tags omitted). A change or cut given only in a name is not applied to a line headed by its entry.
UniProt P06400: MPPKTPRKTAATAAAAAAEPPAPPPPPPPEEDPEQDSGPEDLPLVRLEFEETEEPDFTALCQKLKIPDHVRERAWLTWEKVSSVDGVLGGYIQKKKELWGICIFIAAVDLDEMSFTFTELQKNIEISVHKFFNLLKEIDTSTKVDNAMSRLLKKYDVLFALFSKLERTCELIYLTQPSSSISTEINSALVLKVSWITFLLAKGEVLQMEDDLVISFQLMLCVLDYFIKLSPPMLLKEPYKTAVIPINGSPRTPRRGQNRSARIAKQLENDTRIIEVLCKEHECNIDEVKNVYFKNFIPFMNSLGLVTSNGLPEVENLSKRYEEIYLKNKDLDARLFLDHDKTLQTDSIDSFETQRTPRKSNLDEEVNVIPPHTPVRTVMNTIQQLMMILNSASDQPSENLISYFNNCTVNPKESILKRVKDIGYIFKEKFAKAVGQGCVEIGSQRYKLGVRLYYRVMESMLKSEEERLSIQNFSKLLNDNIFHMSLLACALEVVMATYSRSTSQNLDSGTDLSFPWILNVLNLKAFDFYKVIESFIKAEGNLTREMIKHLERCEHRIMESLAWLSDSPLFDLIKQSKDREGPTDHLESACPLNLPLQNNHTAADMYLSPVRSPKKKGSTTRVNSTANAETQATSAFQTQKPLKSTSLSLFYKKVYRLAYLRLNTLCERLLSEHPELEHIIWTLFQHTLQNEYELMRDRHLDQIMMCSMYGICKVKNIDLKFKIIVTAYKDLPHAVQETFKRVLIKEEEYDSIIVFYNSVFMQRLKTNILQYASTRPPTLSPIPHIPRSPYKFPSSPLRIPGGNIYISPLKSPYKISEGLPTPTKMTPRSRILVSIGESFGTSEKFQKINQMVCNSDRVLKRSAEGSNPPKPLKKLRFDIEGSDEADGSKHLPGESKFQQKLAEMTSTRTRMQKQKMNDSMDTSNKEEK
UniProt Q9UM11: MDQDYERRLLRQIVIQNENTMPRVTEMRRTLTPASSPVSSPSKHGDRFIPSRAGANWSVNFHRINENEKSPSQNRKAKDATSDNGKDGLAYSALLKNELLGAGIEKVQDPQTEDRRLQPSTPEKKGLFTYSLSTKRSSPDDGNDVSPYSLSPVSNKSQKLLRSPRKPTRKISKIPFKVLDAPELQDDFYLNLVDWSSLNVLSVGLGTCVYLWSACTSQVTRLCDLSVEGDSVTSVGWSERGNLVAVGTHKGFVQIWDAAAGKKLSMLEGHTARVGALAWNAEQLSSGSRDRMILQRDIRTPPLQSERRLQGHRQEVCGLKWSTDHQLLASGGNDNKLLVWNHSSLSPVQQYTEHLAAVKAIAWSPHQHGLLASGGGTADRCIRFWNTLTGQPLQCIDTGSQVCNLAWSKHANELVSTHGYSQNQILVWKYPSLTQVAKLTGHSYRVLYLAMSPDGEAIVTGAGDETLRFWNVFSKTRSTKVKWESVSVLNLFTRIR

How the values were obtained:
[1] = target: GST-RB large pocket (amino acids 379-928) triple mutant RB^GSL (human) (UniProt P06400); test: pull-down; purified GST-RB large pocket proteins on glutathione beads with extracts of transfected C33A cells (HA-E2F1-3 with DP1, or myc-CDH1); extract in GSE buffer (420 mM NaCl) diluted twofold in low salt GSE (20 mM Tris pH 7.5, 0.1% NP-40); western blot; only the target purified
[2] = target: GST-RB large pocket (amino acids 379-928) with the RB^G mutations (human) (UniProt P06400); test: pull-down; competition: purified GST-RBLP or GST-RBLP^G with constant myc-CDH1 C33A extract and increasing amounts of HA-E2F3/DP1 C33A extract; glutathione beads; western blot for myc and HA; only the target purified

## myc tagged CDH1 (anaphase promoting complex targeting subunit) (from UniProt Q9UM11 1-496)
[1]
  binding: no binding
[2]
  binding: binds

Results are given in words; binding and its absence hold for the method and conditions named. In cells and extracts the contact can be indirect. For some assays here: Binding calls can cover weak binding; strength is not graded here.
